# Results are given in words; binding and its absence hold for the method and conditions named.
# Legend:
# [1] = biological target: YfiD fused to fragment T18 (Edwardsiella piscicida); assay: two-hybrid; bacterial adenylate cyclase two-hybrid (BACTH), same co-transformants grown in LB with IPTG overnight; β-galactosidase activity by ONPG-based colorimetric analysis at 30 °C
# [2] = biological target: YfiD fused to fragment T18 (Edwardsiella piscicida); assay: two-hybrid; bacterial adenylate cyclase two-hybrid (BACTH): YfiD on T18 (pUT18), PARP1 or its pieces on T25 (pKT25), co-transformed into E. coli BTH101; colony colour on LB plates with IPTG and X-Gal, 37 °C, 24-72 h (blue or white)
substance,measurement,setting,value
full-length PARP1 fused to fragment T25 (from UniProt Q921K2 1-1014),binding,[1],no binding
same,binding,[2],no binding
